Assay results taken from article PMC2358886, “Evolution of pharmacologic specificity in the pregnane X receptor” (BMC Evolutionary Biology, 2008).

How the values were obtained:
rat PXR = target: T1, rat PXR (Rattus norvegicus, UniProt Q9R1A7); conditions: relative to 20 μM pregnenolone 16α-carbonitrile, assigned an efficacy of 1.0
T1 sequence (Q9R1A7 1-431): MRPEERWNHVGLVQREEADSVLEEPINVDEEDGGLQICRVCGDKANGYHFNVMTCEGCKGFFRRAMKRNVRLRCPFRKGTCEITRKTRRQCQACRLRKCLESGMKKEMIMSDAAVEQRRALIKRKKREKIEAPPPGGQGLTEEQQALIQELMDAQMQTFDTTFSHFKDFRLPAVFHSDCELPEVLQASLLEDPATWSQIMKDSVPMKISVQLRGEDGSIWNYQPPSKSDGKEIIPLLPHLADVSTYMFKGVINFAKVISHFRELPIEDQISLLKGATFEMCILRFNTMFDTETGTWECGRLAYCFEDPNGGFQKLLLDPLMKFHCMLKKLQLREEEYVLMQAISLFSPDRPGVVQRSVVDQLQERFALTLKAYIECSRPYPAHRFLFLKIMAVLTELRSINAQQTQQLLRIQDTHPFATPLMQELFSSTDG

rabbit PXR = target: T2, rabbit PXR (Oryctolagus cuniculus, UniProt Q9TU02); test: PXR activation luciferase reporter assay, rabbit PXR; conditions: relative to 50 μM 5α-pregnan-3,20-dione, assigned an efficacy of 1.0
T2 sequence (Q9TU02 1-411): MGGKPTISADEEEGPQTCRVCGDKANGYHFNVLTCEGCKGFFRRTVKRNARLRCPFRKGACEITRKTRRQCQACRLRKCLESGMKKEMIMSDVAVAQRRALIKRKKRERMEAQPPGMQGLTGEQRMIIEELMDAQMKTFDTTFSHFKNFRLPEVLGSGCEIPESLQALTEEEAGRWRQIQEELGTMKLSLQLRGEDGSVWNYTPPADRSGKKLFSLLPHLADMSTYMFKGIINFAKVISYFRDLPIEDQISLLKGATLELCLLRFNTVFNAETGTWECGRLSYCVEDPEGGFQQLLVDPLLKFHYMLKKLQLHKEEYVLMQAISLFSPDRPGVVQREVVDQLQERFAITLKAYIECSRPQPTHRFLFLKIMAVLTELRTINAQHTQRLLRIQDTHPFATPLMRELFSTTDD

human PXR = target: T3, human PXR (Homo sapiens, UniProt O75469)
T3 sequence (O75469 1-434): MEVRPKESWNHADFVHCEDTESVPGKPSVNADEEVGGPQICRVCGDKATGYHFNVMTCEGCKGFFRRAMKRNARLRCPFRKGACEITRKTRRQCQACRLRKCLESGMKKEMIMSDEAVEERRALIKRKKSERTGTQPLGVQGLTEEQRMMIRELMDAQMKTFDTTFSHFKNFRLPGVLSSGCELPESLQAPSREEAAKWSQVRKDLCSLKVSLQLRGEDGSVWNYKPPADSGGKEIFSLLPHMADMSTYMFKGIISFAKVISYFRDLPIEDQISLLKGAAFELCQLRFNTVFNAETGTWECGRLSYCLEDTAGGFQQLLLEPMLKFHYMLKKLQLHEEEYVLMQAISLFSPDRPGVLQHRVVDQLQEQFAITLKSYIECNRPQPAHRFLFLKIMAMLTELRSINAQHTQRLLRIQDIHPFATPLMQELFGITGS

HepG2 cells = conditions: human, 24 hr
mouse PXR = target: T4, mouse PXR (Mus musculus, UniProt O54915); conditions: relative to 20 μM pregnenolone 16α-carbonitrile, assigned an efficacy of 1.0
T4 sequence (O54915 1-431): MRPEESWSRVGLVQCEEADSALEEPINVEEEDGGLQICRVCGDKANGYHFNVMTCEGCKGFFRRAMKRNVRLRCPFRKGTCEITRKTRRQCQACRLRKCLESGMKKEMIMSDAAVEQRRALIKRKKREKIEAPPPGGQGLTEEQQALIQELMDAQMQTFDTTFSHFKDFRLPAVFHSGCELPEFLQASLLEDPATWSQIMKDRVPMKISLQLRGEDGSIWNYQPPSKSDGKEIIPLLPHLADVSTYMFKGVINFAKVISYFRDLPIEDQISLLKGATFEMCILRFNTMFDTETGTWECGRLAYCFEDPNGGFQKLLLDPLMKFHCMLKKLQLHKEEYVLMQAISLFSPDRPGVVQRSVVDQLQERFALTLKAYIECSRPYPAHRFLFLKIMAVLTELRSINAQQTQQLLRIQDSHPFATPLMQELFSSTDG

With `COC(=O)C1=C(C)NC(C)=C(C(=O)OC)C1c1ccccc1[N+](=O)[O-]` [MI22, Nifedipine] the “Rat PXR efficacy, ε” value (rat PXR) was 5.26 (ε = 0.68), the “Rabbit PXR efficacy, ε” value (rabbit PXR) was 4.61 (ε = 0.29) and the “hPXR Efficacy” value (human PXR) was 0.41. The Toxicity (HepG2 cells) was 50 µM and the “Mouse PXR efficacy, ε” value (mouse PXR) was 4.64 (ε = 0.51).
